Measurements as given in the supplement of paper PMC8728848.
This is one part of the list.

Assays:
Experiment in all cases: glycan array binding signal (z-score within array); higher = stronger binding
Conditions in all cases: glycan notation: IUPAC condensed, linker removed
[1] = molecular target: Fuc(a1-2)[Gal(a1-4)]Gal(b1-4)GlcNAc
How it was run: (§1)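 Glycan array data were curated from 3228 arrays in the Consortium for Functional Glycomics database and kept only where the protein sequence was available. Glycan names were converted to IUPAC-condensed notation, and columns mapping to the same glycan were averaged. The binding signal is a within-array Z-score, averaged across arrays of the same protein sequence at different concentrations or buffers and across linkers. Negative Z-scores can be read as non-binding.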

[2] = molecular target: Fuc(a1-2)[GalNAc(a1-3)]Gal
How it was run: as §1

[3] = molecular target: Fuc(a1-2)[GalNAc(a1-3)]Gal(b1-3)GalNAc(a1-3)[Fuc(a1-2)]Gal(b1-4)GlcNAc
How it was run: as §1

[4] = molecular target: Fuc(a1-2)[GalNAc(a1-3)]Gal(b1-3)GalNAc(b1-3)Gal(a1-4)Gal(b1-4)Glc
How it was run: as §1

[5] = molecular target: Fuc(a1-2)[GalNAc(a1-3)]Gal(b1-3)GlcNAc
How it was run: as §1

[6] = molecular target: Fuc(a1-2)[GalNAc(a1-3)]Gal(b1-3)GlcNAc(b1-2)Man(a1-3)[Fuc(a1-2)[GalNAc(a1-3)]Gal(b1-3)GlcNAc(b1-2)Man(a1-6)]Man(b1-4)GlcNAc(b1-4)GlcNAc
How it was run: as §1

[7] = molecular target: Fuc(a1-2)[GalNAc(a1-3)]Gal(b1-3)GlcNAc(b1-2)Man(a1-3)[Fuc(a1-2)[GalNAc(a1-3)]Gal(b1-3)GlcNAc(b1-2)Man(a1-6)]Man(b1-4)GlcNAc(b1-4)[Fuc(a1-6)]GlcNAc
How it was run: as §1

[8] = molecular target: Fuc(a1-2)[GalNAc(a1-3)]Gal(b1-3)GlcNAc(b1-3)GalNAc
How it was run: as §1

[9] = molecular target: Fuc(a1-2)[GalNAc(a1-3)]Gal(b1-3)GlcNAc(b1-6)GalNAc
How it was run: as §1

[10] = molecular target: Fuc(a1-2)[GalNAc(a1-3)]Gal(b1-4)Glc
How it was run: as §1

[11] = molecular target: Fuc(a1-2)[GalNAc(a1-3)]Gal(b1-4)GlcNAc
How it was run: as §1

[12] = molecular target: Fuc(a1-2)[GalNAc(a1-3)]Gal(b1-4)GlcNAc(b1-2)Man
How it was run: as §1

[13] = molecular target: Fuc(a1-2)[GalNAc(a1-3)]Gal(b1-4)GlcNAc(b1-2)Man(a1-3)[Fuc(a1-2)[GalNAc(a1-3)]Gal(b1-4)GlcNAc(b1-2)Man(a1-6)]Man(b1-4)GlcNAc(b1-4)GlcNAc
How it was run: as §1

[14] = molecular target: Fuc(a1-2)[GalNAc(a1-3)]Gal(b1-4)GlcNAc(b1-2)Man(a1-3)[Fuc(a1-2)[GalNAc(a1-3)]Gal(b1-4)GlcNAc(b1-2)Man(a1-6)]Man(b1-4)GlcNAc(b1-4)[Fuc(a1-6)]GlcNAc
How it was run: as §1

[15] = molecular target: Fuc(a1-2)[GalNAc(a1-3)]Gal(b1-4)GlcNAc(b1-3)Gal(b1-4)GlcNAc
How it was run: as §1

[16] = molecular target: Fuc(a1-2)[GalNAc(a1-3)]Gal(b1-4)GlcNAc(b1-3)Gal(b1-4)GlcNAc(b1-3)Gal(b1-4)GlcNAc
How it was run: as §1

[17] = molecular target: Fuc(a1-2)[GalNAc(a1-3)]Gal(b1-4)GlcNAc(b1-3)GalNAc
How it was run: as §1

[18] = molecular target: Fuc(a1-2)[GalNAc(a1-3)]Gal(b1-4)GlcNAc(b1-3)[Fuc(a1-2)[GalNAc(a1-3)]Gal(b1-4)GlcNAc(b1-6)]GalNAc
How it was run: as §1

[19] = molecular target: Fuc(a1-2)[GalNAc(a1-3)]Gal(b1-4)GlcNAc(b1-6)GalNAc
How it was run: as §1

[20] = molecular target: Fuc(a1-2)[GalNAc(a1-3)]Gal(b1-4)[Fuc(a1-3)]GlcNAc
How it was run: as §1

[21] = molecular target: Fuc(a1-2)[GalNAc(a1-3)]Gal(b1-4)[Fuc(a1-3)]GlcNAc(b1-3)GalNAc
How it was run: as §1

[22] = molecular target: Fuc(a1-2)[GalNAc(a1-4)]Gal(b1-4)GlcNAc
How it was run: as §1

[23] = molecular target: Fuc(a1-2)[GalNAc(b1-3)]Gal
How it was run: as §1

[24] = molecular target: Fuc(a1-3)GlcNAc
How it was run: as §1

[25] = molecular target: Fuc(a1-3)[Gal(b1-4)]Glc6S
How it was run: as §1

[26] = molecular target: Fuc(a1-3)[Gal(b1-4)]GlcNAc
How it was run: as §1

[27] = molecular target: Fuc(a1-3)[Gal(b1-4)]GlcNAc(b1-2)Man
How it was run: as §1

[28] = molecular target: Fuc(a1-3)[Gal(b1-4)]GlcNAc(b1-2)Man(a1-3)[Fuc(a1-3)[Gal(b1-4)]GlcNAc(b1-2)Man(a1-6)]Man(b1-4)GlcNAc(b1-4)GlcNAc
How it was run: as §1

[29] = molecular target: Fuc(a1-3)[Gal(b1-4)]GlcNAc(b1-2)Man(a1-3)[Fuc(a1-3)[Gal(b1-4)]GlcNAc(b1-2)Man(a1-6)]Man(b1-4)GlcNAc(b1-4)[Fuc(a1-6)]GlcNAc
How it was run: as §1

[30] = molecular target: Fuc(a1-3)[Gal(b1-4)]GlcNAc(b1-3)Gal(b1-3)[Fuc(a1-4)]GlcNAc
How it was run: as §1

[31] = molecular target: Fuc(a1-3)[Gal(b1-4)]GlcNAc(b1-3)Gal(b1-4)[Fuc(a1-3)]GlcNAc
How it was run: as §1

[32] = molecular target: Fuc(a1-3)[Gal(b1-4)]GlcNAc(b1-3)Gal(b1-4)[Fuc(a1-3)]GlcNAc(b1-3)Gal(b1-4)[Fuc(a1-3)]GlcNAc
How it was run: as §1

[33] = molecular target: Fuc(a1-3)[Gal(b1-4)]GlcNAc(b1-3)GalNAc
How it was run: as §1

[34] = molecular target: Fuc(a1-3)[Gal(b1-4)]GlcNAc(b1-6)GalNAc
How it was run: as §1

[35] = molecular target: Fuc(a1-3)[Gal(b1-4)]GlcNAc(b1-6)[Gal(b1-3)GlcNAc(b1-3)]Gal(b1-4)Glc
How it was run: as §1

[36] = molecular target: Fuc(a1-3)[Gal(b1-4)]GlcNAc6S
How it was run: as §1

[37] = molecular target: Fuc(a1-3)[Gal3S(b1-4)]Glc
How it was run: as §1

[38] = molecular target: Fuc(a1-3)[Gal3S(b1-4)]GlcNAc
How it was run: as §1

B1: Mnn9-2N3 (Aspergillus fumigatus) (protein)
chain: MAVARRMRRTNPITLLLAAILAIGFFIFVLSPSTTSASPVKAGSASSSSTSQQRREDNAAENPLSPPTKPFFKSQPVRHDGQQAPPPVVQYNLNQLSSTSTSAANGERILILTPMARFVPEYWDNVVKLTYPHELISIGFIIPKNKEGNAALAALEAAIAKTQSGPIDKRFASISILRQDFEPPLQSQDEKERHKISNQKARRESMSRARNSLLFTTLGPATAWVLWLDADIVETPPTLIQDLTAHDHPVLVPNCYQRYYNSEKKKMDVRPYDYNSWIDSSTAQSMAAEMGPDEILLEGYAEMPTYRTLMAHLADTANPNPKKVIELDGVGGTALMVKAEVHRDGAMFPAFPFYHLVETEGFAKMAKRLGYSVYGLPDYFVSRNFFFFFFFFFFG
[1]
  glycan array binding signal (z-score): -0.286
[2]
  glycan array binding signal (z-score): -0.171
[3]
  glycan array binding signal (z-score): -1.58
[4]
  glycan array binding signal (z-score): 0.008
[5]
  glycan array binding signal (z-score): -1.58
[6]
  glycan array binding signal (z-score): 1.75
[7]
  glycan array binding signal (z-score): 0.504
[8]
  glycan array binding signal (z-score): -0.032
[9]
  glycan array binding signal (z-score): 1.61
[10]
  glycan array binding signal (z-score): 0.177
[11]
  glycan array binding signal (z-score): 0.402
[12]
  glycan array binding signal (z-score): 0.325
[13]
  glycan array binding signal (z-score): 0.31
[14]
  glycan array binding signal (z-score): -0.585
[15]
  glycan array binding signal (z-score): -0.282
[16]
  glycan array binding signal (z-score): -1.18
[17]
  glycan array binding signal (z-score): -0.66
[18]
  glycan array binding signal (z-score): -0.67
[19]
  glycan array binding signal (z-score): 2.39
[20]
  glycan array binding signal (z-score): -0.297
[21]
  glycan array binding signal (z-score): -2.19
[22]
  glycan array binding signal (z-score): 0.17
[23]
  glycan array binding signal (z-score): 0.1
[24]
  glycan array binding signal (z-score): -0.297
[25]
  glycan array binding signal (z-score): -0.104
[26]
  glycan array binding signal (z-score): 0.158
[27]
  glycan array binding signal (z-score): 1.55
[28]
  glycan array binding signal (z-score): -0.336
[29]
  glycan array binding signal (z-score): -1.5
[30]
  glycan array binding signal (z-score): -0.18
[31]
  glycan array binding signal (z-score): -0.041
[32]
  glycan array binding signal (z-score): -0.131
[33]
  glycan array binding signal (z-score): -0.082
[34]
  glycan array binding signal (z-score): -0.641
[35]
  glycan array binding signal (z-score): -0.014
[36]
  glycan array binding signal (z-score): -0.346
[37]
  glycan array binding signal (z-score): 0.746
[38]
  glycan array binding signal (z-score): -0.377
